The values that follow come from PubChem BioAssay AID2685 (National Center for Advancing Translational Sciences (NCATS), 2010).

The experiment can be described thus: qHTS Assay for Lipid Storage Modulators in Drosophila S3 Cells.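 On cell number change: cells counted by Cell Tracker Red CMTPX staining in the red channel.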 Particulars: BODIPY lipid droplet fluorescence, 18-24 h; for cell number change: measured here: cell count max response, cells fed with added oleic acid. The procedure, abridged:
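Drosophila S3 cells got compounds at several concentrations plus oleic acid (400 uM solution). Laser-scanning cytometry with 488 nm excitation read lipid droplets at 500-530 nm and cells at 575-640 nm. Percent activity was relative to 20 uM Triacsin C.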
Background: In qHTS, concentration-response curves come from the screen itself.

The mark [1] stands for this setting: measured here: cell number channel AC50, cells fed with added oleic acid.
[2] abbreviates: measured here: lipid fluorescence (Fed channel) AC50, cells fed with added oleic acid.

SMILES strings stand for the structures. The list shows a part of the results. Shown are side measurements of this screen, not its main read-out; they come without a call. The list favours compounds with an active or inconclusive main result. Potencies come from curve fits of mixed quality, noted in brackets.

The AC50 is the concentration giving half of the maximal activity seen. A lower AC50 goes with greater potency.

As for `CNC(=O)N(O)C1N(/N=C/c2ccccc2OC)C(=S)SC1(C)C` (stereo unspecified), the cell number change was found to be 1.11%.

`COCC(=O)Nc1nc2ccc(C)cc2s1`: the cell number change was 201%. Moreover, under setting [1], the AC50 is 16.4 µM [rising, partial curve]. The AC50 under setting [2] was 23.1 µM [rising, partial curve].

Take `COc1ccccc1C1NC=C([N+](=O)[O-])C=C1[N+](=O)[O-]` (stereo unspecified): the cell number change was -46.4%. For the same compound, under setting [1], the AC50 was 18.4 µM [falling, single point]. Under setting [2], the AC50 is 20.6 µM [falling, single point].

As for `C/C(=N\Nc1ccc(Cl)c(C(=O)O)c1)c1ccc2c(c1)OCO2`, the cell number change was 11.7%. Besides, the AC50 under setting [2] was 20.6 µM [rising, single point].

Regarding `O=C(CSc1nnnn1-c1ccccc1)Nc1ncc(Cc2cc(Cl)ccc2Cl)s1`, the cell number change was -26.4%. The AC50 under setting [2] is 16.4 µM [falling, single point].

Consider `CCCCCc1c(C)nc(N2CCc3ccccc32)[nH]c1=O`, for which the cell number change was -18.9%. In addition, the AC50 under setting [1] is 3.66 µM [falling, single point]. In addition, the half-maximal activity concentration (AC50) under setting [2] was 3.26 µM [falling, single point].

Consider `O=C(NCc1ccccc1)C(c1ccco1)N(C(=O)c1csnn1)C1CC1` (stereo unspecified), for which the cell number change was -31%. Moreover, under setting [1], the AC50 is 0.146 µM [falling, full curve, poor fit].

For `O=C(NCCS(=O)(=O)NCCc1ccccc1)c1ccccc1`, the cell number change was found to be 44.2%. The AC50 under setting [1] is 29.1 µM [rising, single point].

With `CC(C)Cn1nc(C(=O)OCC(=O)NCC(F)(F)F)c2ccccc2c1=O`, the cell number change is -0.113%. Also, under setting [1], the half-maximal activity concentration (AC50) is 0.092 µM [rising, partial curve, poor fit].

`O=C(COc1ccc(Cl)cc1Cl)N/N=C1\CCCc2ccccc21`: under setting [2], the half-maximal activity concentration (AC50) is 6.51 µM [falling, single point].

As for `O=C(Cn1c(=O)oc2cc(S(=O)(=O)N3CCCC3)ccc21)NC1CCCc2ccccc21` (stereo unspecified), under setting [2], the AC50 is 2.06 µM [falling, partial curve].

With `COc1ccc(OC)c(NC(=O)CSc2nnc(Cn3c(=O)sc4ccccc43)n2C)c1`, the cell number change was -39.2%. Also, the AC50 under setting [1] is 20.6 µM [falling, partial curve]. Also, the AC50 under setting [2] is 16.4 µM [falling, partial curve].

Take `COc1ccccc1N1CCN(Cc2c[nH]c3ccccc23)CC1`: the cell number change is -0.558%. Besides, the AC50 under setting [2] was 0.00517 µM [falling, full curve, poor fit].

For the compound `CCN(CC)S(=O)(=O)c1cccc(NC(=O)COc2ccc(C#N)cc2OC)c1`, the cell number change worked out at 44%. The AC50 under setting [1] was 6.51 µM [rising, partial curve].

For `CCn1cc(CN2CCCC(C(=O)Nc3ccc(-c4nc5ccccc5[nH]4)cc3)C2)c(C)n1` (stereo unspecified), the cell number change is -11.1%.

On to `CCOC(=O)C1CCCCN1Cc1cccc(OCc2ccccc2)c1` (stereo unspecified), for which the cell number change was -6.56%. Further, the AC50 under setting [2] was 29.1 µM [rising, single point].

In the case of `O=C(NCc1cccc(C(F)(F)F)c1)N1CCN(S(=O)(=O)c2ccccc2F)CC1`, the cell number change came out at 7.83%.

As to `COC(=O)c1[nH]nc2c1C(=O)N(Cc1ccccc1)C2=O`, the cell number change was -6.18%. Besides, the AC50 under setting [1] is 2.31 µM [falling, single point]. Further, the AC50 under setting [2] was 6.51 µM [falling, single point].

Consider `O=CN1CCN(C(=O)c2cc3cc(Cl)ccc3[nH]2)CC1`, for which the cell number change came out at 22.9%. In addition, the AC50 under setting [1] is 0.411 µM [rising, full curve, poor fit]. The AC50 under setting [2] was 0.58 µM [rising, single point].

On to `O=C(/C=C/c1cccc(Br)c1)c1ccc2c(c1)OCO2`, for which the cell number change is -14.1%.

Consider `CCOc1ccc(S(=O)(=O)NCc2ccccc2Cl)cc1C(N)=O`, for which the cell number change is -5.01%. Also, under setting [2], the concentration at half-maximal activity (AC50) is 0.13 µM [rising, full curve, poor fit].

For the compound `COc1ccc(-c2nnn(CC(=O)N(CCN3CCOCC3)C(C(=O)NC3CCCC3)c3ccco3)n2)cc1` (stereo unspecified), the cell number change was determined as 25.2%. The AC50 under setting [2] was 4.61 µM [rising, full curve, poor fit].

With `CCc1nnc(NS(=O)(=O)c2ccc(NC(=O)c3cccc(OC)c3)cc2)s1`, the cell number change is -1.98%.

Regarding `CCOC(=O)c1ccc(NC(=O)Nn2cnnc2)cc1`, the cell number change worked out at 41.6%. In addition, the concentration at half-maximal activity (AC50) under setting [1] was 5.17 µM [rising, partial curve, poor fit].

In the case of `CCCCCCC1CC(=O)NC(=S)N1` (stereo unspecified), the cell number change amounted to 63.6%. For the same compound, the AC50 under setting [1] was 5.8 µM [rising, full curve, poor fit]. The AC50 under setting [2] is 0.231 µM [rising, full curve, poor fit].

For the compound `CC(=O)c1ccc(S(=O)(=O)N2CCC(c3nc4ccccc4[nH]3)CC2)cc1`, the cell number change was 5.83%. The AC50 under setting [2] is 0.13 µM [falling, full curve].

Regarding `c1ccc2sc(-c3ccc4c(c3)OCO4)nc2c1`, the cell number change worked out at 0.711%. Also, the AC50 under setting [2] is 10.3 µM [rising, partial curve, poor fit].

On to `CC1CN(C(=O)C(C)N2CCN(c3ccccc3Cl)CC2)CC(C)O1` (stereo unspecified), for which the half-maximal activity concentration (AC50) under setting [1] was 0.58 µM [falling, single point].

Consider `CCOC(=O)c1c(NC(=O)CSc2nnc(-c3c[nH]c4ccccc34)n2CCOC)sc2c1CCCCC2`, for which the AC50 under setting [2] was 2.06 µM [rising, partial curve].

Consider `CC(=O)c1ccc(OC(=O)c2cc3ccccc3oc2=O)cc1`, for which the cell number change was determined as 72.3%. Further, the AC50 under setting [1] was 0.116 µM [rising, full curve]. Also, the AC50 under setting [2] was 29.1 µM [rising, partial curve, poor fit].

Turning to `CSc1nccc(Oc2cncc(Cl)c2)n1`, the cell number change was -52.8%. Further, under setting [1], the AC50 is 23.1 µM [falling, single point]. The AC50 under setting [2] was 29.1 µM [falling, single point].

Take `O=C(Nc1cc([N+](=O)[O-])ccc1F)c1ccc2ccccc2c1`: under setting [2], the AC50 was 0.82 µM [rising, single point].

For `COc1ccc(CNS(=O)(=O)NCc2ccccc2)cc1OC`, the cell number change turned out to be 55.1%. Also, the AC50 under setting [1] is 32.6 µM [rising, single point].

As to `O=C(CSc1ccc(-c2ccco2)nn1)N1CCCC1`, the cell number change turned out to be 3.25%. Under setting [1], the AC50 was 0.461 µM [falling, single point].

Consider `O=C(CSCc1ccccc1F)NCc1ccccc1`, for which the cell number change was 15.5%.

For the compound `CC1CCCN(CC(O)COCc2ccccc2)C1` (stereo unspecified), the cell number change stood at 13.7%. The AC50 under setting [2] is 0.206 µM [falling, full curve].

For `O=C(NCc1ccc(F)cc1)C1CCN(S(=O)(=O)N2CCOCC2)CC1`, the cell number change was 24.9%.

With `O=C(c1cccc(S(=O)(=O)N2CCCC2)c1)N1CCCC(C(F)(F)F)C1` (stereo unspecified), the cell number change is 50%. Also, the concentration at half-maximal activity (AC50) under setting [1] is 29.1 µM [rising, single point]. Further, under setting [2], the AC50 was 1.46 µM [rising, partial curve].

With `COc1cc(C(=O)NNC(=O)c2cccn2C)cc(OC)c1OC`, the cell number change was -5.38%. Moreover, under setting [2], the AC50 is 0.731 µM [rising, single point].

As to `O=C(COc1cccc(F)c1)NNC(=O)Cc1ccc(Br)cc1`, the cell number change was -9.33%. Moreover, the AC50 under setting [2] was 0.146 µM [falling, full curve, poor fit].

Consider `N#C/C(=C\c1cc2ccccc2nc1N1CCOCC1)C(=O)Nc1ccc(N2CCOCC2)cc1`, for which the cell number change was -42.6%. Also, the concentration at half-maximal activity (AC50) under setting [1] is 2.91 µM [rising, single point].

Take `Cc1ccc(C)c(S(=O)(=O)Nc2ccc(S(=O)(=O)Nc3ncccn3)cc2)c1`: the cell number change was found to be 0.807%. The AC50 under setting [2] is 29.1 µM [falling, single point].

On to `CC1CCC(NC(=O)c2cc3ccccc3cc2O)CC1` (stereo unspecified), for which the cell number change is -9.99%.

Regarding `CCOc1ccc(S(=O)(=O)N2CCCCC2)c(C)c1C`, the cell number change is -13.1%. For the same compound, under setting [2], the AC50 is 3.26 µM [falling, full curve].

In the case of `C/C(=N/NC(=O)c1nnn(-c2nonc2N)c1COc1ccccc1)c1ccccc1`, the cell number change came to 56.6%. In addition, under setting [1], the AC50 is 1.64 µM [rising, partial curve, poor fit].

For the compound `COC(=O)C1(C#N)C(c2ccccc2)C1(C(=O)OC)C(=O)OC` (stereo unspecified), the concentration at half-maximal activity (AC50) runs as follows: under setting [1], 3.66 µM [falling, partial curve]; under setting [2], 6.51 µM [falling, single point].

With `CCOP(=O)(OCC)c1nc(-c2ccc(C)cc2)oc1NCc1ccccc1`, the cell number change was -2.33%.

With `CC12CCC(C(=O)N(CSC(=S)N/N=C\c3ccccc3Cl)C1=O)C2(C)C` (stereo unspecified), the cell number change is -20.9%. Further, the AC50 under setting [2] is 29.1 µM [rising, single point].

For `COc1ccc(S(=O)(=O)N2CCOCC2)cc1N(C)S(=O)(=O)c1ccc(C)cc1`, the cell number change was -5.28%.

In the case of `Cc1nnc2n(-c3ccccc3)c(=O)c3c4c(sc3n12)COC(C)(C)C4`, the cell number change was found to be 9.85%. In addition, the AC50 under setting [2] was 29.1 µM [falling, single point].

As for `COCC(=O)Nc1ccc(OC)c(Cl)c1`, the cell number change is 21.5%. Besides, under setting [2], the AC50 is 0.082 µM [rising, full curve, poor fit].

Regarding `O=C1OC(c2ccc(F)cc2)=N/C1=C\c1ccc(Br)o1`, the cell number change was -22.3%. Besides, the AC50 under setting [2] was 0.00517 µM [falling, full curve, poor fit].

For the compound `O=C(Cn1c2c(c(=O)n3ncnc13)CCC2)N/N=C/c1ccc(Cl)cc1`, the cell number change was -1.45%. Also, under setting [1], the AC50 was 0.731 µM [falling, single point].

On to `Cc1nn(CC(=O)N(C)C2CCS(=O)(=O)C2)c(C)c1[N+](=O)[O-]` (stereo unspecified), for which the cell number change stood at 7.63%.

Turning to `O=C1COCCOCCOCC(=O)NCCN1`, the cell number change is -57.5%. Also, the AC50 under setting [1] is 29.1 µM [falling, single point].

With `O=C(Nc1cccc2c1N(C(=O)c1ccco1)CCC2)c1ccco1`, the cell number change was 28.6%. For the same compound, under setting [2], the AC50 is 20.6 µM [rising, single point].

`COc1ccc(NS(=O)(=O)c2ccc(Cl)c(NC(=O)c3cccnc3Cl)c2)cc1`: the cell number change came to 6.9%. Besides, under setting [1], the AC50 was 0.146 µM [rising, full curve, poor fit]. Further, under setting [2], the concentration at half-maximal activity (AC50) was 1.84 µM [rising, partial curve, poor fit].

Turning to `Cc1snc(SCC(=O)c2ccc(Cl)cc2)c1C#N`, the cell number change stood at 5.28%. The AC50 under setting [2] was 29.1 µM [rising, single point].

In the case of `O=C(NCc1ccccc1Br)c1cccc2c1C(=O)c1ccc(N3CCOCC3)cc1S2(=O)=O`, the cell number change is -70.8%. The AC50 under setting [1] is 29.1 µM [falling, single point].

Turning to `COc1ccc(-c2n[nH]c(=S)n2-c2ccc(Br)cc2)cc1OC`, the cell number change amounted to 0.265%. For the same compound, the concentration at half-maximal activity (AC50) under setting [2] was 29.1 µM [rising, single point].

Take `COc1ccc(N2CCCC2)c(NC(=O)c2ccc([N+](=O)[O-])o2)c1`: under setting [2], the half-maximal activity concentration (AC50) is 14.6 µM [falling, partial curve].
